These results are taken from paper PMC4139204, “Insight into the Architecture of the NuRD Complex” (The Journal of Biological Chemistry, 2014).

Sequences of proteins named here, by UniProt entry; tags and fusion partners are left off. A change or cut given only in a name is not applied to a line headed by its entry. A line that says so, or that is headed by a name, gives the form on record, which may keep a tag or linker.
UniProt Q24572: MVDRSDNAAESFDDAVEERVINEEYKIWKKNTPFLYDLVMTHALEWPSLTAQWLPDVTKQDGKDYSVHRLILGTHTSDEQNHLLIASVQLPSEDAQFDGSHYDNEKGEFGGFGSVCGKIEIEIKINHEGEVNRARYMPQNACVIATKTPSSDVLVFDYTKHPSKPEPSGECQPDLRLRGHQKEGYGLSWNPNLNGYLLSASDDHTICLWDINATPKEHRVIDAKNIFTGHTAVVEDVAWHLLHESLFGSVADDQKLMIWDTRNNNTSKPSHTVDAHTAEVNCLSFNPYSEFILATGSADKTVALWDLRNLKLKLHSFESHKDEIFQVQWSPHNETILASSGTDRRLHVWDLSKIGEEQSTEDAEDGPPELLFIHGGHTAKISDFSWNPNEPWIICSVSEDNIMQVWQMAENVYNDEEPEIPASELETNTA
protein A-tagged Nurf55mut (Q24572, form named): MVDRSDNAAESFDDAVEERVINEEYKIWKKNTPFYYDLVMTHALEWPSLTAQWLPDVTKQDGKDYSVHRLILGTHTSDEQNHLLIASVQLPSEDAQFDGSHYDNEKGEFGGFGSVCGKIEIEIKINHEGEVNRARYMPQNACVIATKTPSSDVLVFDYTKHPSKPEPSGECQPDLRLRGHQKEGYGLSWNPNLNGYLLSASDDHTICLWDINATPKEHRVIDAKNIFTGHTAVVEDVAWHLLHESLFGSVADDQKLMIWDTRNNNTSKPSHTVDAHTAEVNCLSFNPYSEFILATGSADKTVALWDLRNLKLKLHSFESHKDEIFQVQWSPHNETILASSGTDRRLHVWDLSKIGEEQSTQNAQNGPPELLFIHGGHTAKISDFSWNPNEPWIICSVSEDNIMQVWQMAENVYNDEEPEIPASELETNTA

These are yes or no findings as the source states them, for the method shown. Binding seen in cells or lysates may run through a third protein. These calls come from enrichment with a bait or labelling near it, and not all partners need be listed. For part of these data: A no says only that the protein was not detected with the bait.

For assay [1], the target named is GFP-tagged wild-type Nurf55 (D. melanogaster) (UniProt Q24572). As to the kind of experiment: affinity purification with mass spectrometry; GFP-tagged Nurf55 or Nurf55mut stably expressed in Dmel-2 cells; purified on beads with a covalently attached anti-GFP nanobody; mass spectrometry, in triplicate.
Assay [2] has as its target protein A-tagged Nurf55mut (D. melanogaster) (UniProt Q24572). The assay can be described thus: affinity purification with mass spectrometry; protein A-tagged Nurf55 or Nurf55mut stably expressed in Dmel-2 cells; purified on IgG beads; interactors identified by mass spectrometry.
Assay [3] concerns the target protein A-tagged wild-type Nurf55 (D. melanogaster) (UniProt Q24572). The description is as above.

B1: MTA-like (protein, UniProt Q9VNF6 1-880)
chain: MATNMYRVGDYVYVETTPNSPYLIRRIEELNKNQTGNVEAKVMCFYRRRDLPNPLVQLADKHQLATAEDSPLATKLKKTWLRTPVSEEQAAQAVLDPSIAALDEERTSPTQTSGGGGSATGNSGSNSSGTSNNNSSSTAIGGGAGGSGGAGGDAEKGEALTSKQRYQIKHRELFLSRQVESIPATQIRGKCSVTLLNETESLQSYLNKDDTFFYCLVFDPNQKTLLADKGEIRVGSRYQCDIPAKLKDTATDDRKLEELESLVWTPEHSLTDRKIDQFLVVSRSIGTFARALDCSSSVKQPSLHMSAAAASRDITLFHAMNILHKHEYSIEESMSSLVPSTGPVLCRDEIEDWSASEANLFEEALEKYGKDFNDIRQDFLPWKTLKQIIEYYYMWKTTDRYVQQKRVKAVEAELKLKQVYIPQYNNNGKGNGTSTKAGGGIYNGTTNGSTDLSSNGKPCESCGTTKSSQWNSVSSGHSTSRLCLSCWEYWRRYGSMKSATKGDAGEGDAKKKSSSAASTPTATLAGLATTPTAVVDLNDDEKISDLTNRQLHRCSIVNCGKEFKLKTHLARHYAQAHGIAISSGSPRPIMKTRTAFYLHTNPMTRVARAICRSIVKPKKAARQSAYAINAMLVKQEFTNRISGKSQAEIKKLLLLKPKDRGSVTKIANRLGAPGSGPHEWLVLTPKDKMPLPAVVSFPKPPKAPDGSLVYDRVPNKSPDVVAVPADKELTIIPTQATSTIRKRAHEDQQLNGTEVTIVPSGPPAKRPNKDPMPSHCPSPEQFAAMMAASGQPLSRHHLNGKQKIAQMARGGNGRKQVISWMDAPDDVYFRANDTHKKTRKILSAVDLRRAARKPWRTLPIKPAAPEPSSRPIESQIVILD
Turning to B1, the binding entry in assay [1] is reported as “binds”; in assay [2] it was “no binding”; in assay [3], “binds”.
